Literature values as cited in US20200352795A1, “WETNESS INDICATOR WITH HARDENERS” (SAVARE' I.C. S.r.l., priority 2018, published 2020).
At least one compound was matched to its structure with a doubt left.

Structure (SMILES): O=C1/C(=C2\Nc3ccc(S(=O)(=O)[O-])cc3C2=O)Nc2ccc(S(=O)(=O)[O-])cc21.[Na+].[Na+] [Indigo Carmine]
- High pH Color: Yellow
- Low pH Color: Blue
